# According to PubChem BioAssay AID1347423 (Functional Genomics Laboratory (NCATS/FGL), 2020):
# Hit rate of the full screen: of about 52,000 sequences, about 210 (0.4%) were called active.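 Rule for the calls: active = gene whose silencing raises cell survival under the drug, median off-target-corrected z-score across its silencing RNAs 2 or more; inactive = the rest.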 The list shows a part of the results.
# Assay: Resistance to Poly (ADP-Ribose) Polymerase inhibitor: Gene Identification via Genome-wide siRNA Screen
# Conditions: mouse BRCA2 R2336H ES cells, olaparib, CellTiter-Glo viability; active compounds read high
# Procedure, shortened: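 Genome-wide siRNA screen (3 siRNAs/gene, 20 nM) in mouse ES cells carrying hypomorphic BRCA2 R2336H; olaparib 500 nM added 48 h post-transfection, CellTiter-Glo viability 72 h later. Normalized to plate-median negative control; MAD z-scores, gene median, seed-adjusted.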
row,Sequence,z-score
1,GGCAGCAGUAAAGAAAAAGTT against Jtv1,inactive: 0.273
2,GGAACUCCAAACCAGAUACTT against Gemin7,inactive: -0.753
3,GGAAAGGAUAAAGUAUAUCTT against Calmbp1,inactive: 0.278
4,GGAGGGCAAGAUAGAUGAGTT against Tnfrsf6,inactive: 1.22
5,UAGGUUCAUUAUGGUGCCATT against D530030D03Rik,inactive: 1.03
6,GGUACAAUACAUUCAAACATT against Serpinb6c,inactive: 0.531
7,GGAUGUCACUGAAAUUGCCTT against 4930500E24Rik,inactive: 0.406
8,GGAAACCAGGAAUGUUAAUTT against Mrps2,inactive: -0.308
9,GGCAAAAGUACUGAUCACATT against Pcdhga7,inactive: -0.168
10,GGAUUUCAAUGAAACUCAGTT against Antxr1,inactive: -0.142
11,GGACUUGUGGCUGAAAACCTT against Slc22a7,inactive: 0.176
12,CGACAAUGUGCCGAUGUUGTT against Pcdha8,inactive: -1.57
13,GGAAUGUGUUAAAAGCACUTT against Fign,inactive: 0.647
14,GGGUGCAGUGUUGUUUAUATT against 7-Sep,inactive: 1.51
15,GCCGCAUCCACACAUCUCUTT against Daam2,inactive: 0.684
16,GGUUGUCACAACAACAAUGTT against Oit3,inactive: 0.426
17,CCAUAUUACAACAACUCUCTT against Sytl4,inactive: 0.462
18,GGGCCAGUUCCCAAUGAAATT against Gfm,inactive: 0.687
19,GGCCAGAGCCUGAAUUCUUTT against Bag4,inactive: -0.642
20,CCUUAAGUGUGUCAGGGCATT against 1110058L19Rik,inactive: -1.58
21,GCCCAUGAGUCAACAGUACTT against Ss18l1,inactive: 0.436
22,GGGAAGUACACAUUGAUUATT against Ndst4,inactive: -0.162
23,CCUUGAAUUUAACAGGGAUTT against 4930506M07Rik,inactive: -0.401
24,GGAGCUCGUGAAGCUGUUUTT against Stk19,inactive: 2.44
25,GGGUCCACAUAUAAUUACCTT against Slc36a3,inactive: -0.163
26,GGACAUCUUGCUGCUUCUATT against Srebf1,inactive: 0.309

# Reprinted at random: 5 records from the list.
row,Sequence,z-score
26,GGACAUCUUGCUGCUUCUATT against Srebf1,inactive: 0.309
9,GGCAAAAGUACUGAUCACATT against Pcdhga7,inactive: -0.168
17,CCAUAUUACAACAACUCUCTT against Sytl4,inactive: 0.462
4,GGAGGGCAAGAUAGAUGAGTT against Tnfrsf6,inactive: 1.22
21,GCCCAUGAGUCAACAGUACTT against Ss18l1,inactive: 0.436

# Additional records.

row,Sequence,z-score
1,GGAUAACCGCCAAUAAAAATT against 5730528L13Rik,inactive: 1.7
2,GGAACAGUCACAGACAGCUTT against 9030624J02Rik,inactive: -0.129
3,GAUAAAAUGGGCAUUACCUTT against Olfr666,inactive: -0.345
4,GGUACACAAACAAGUAUUCTT against Eif3s7,inactive: 0.58
5,GGCAGCAGAAGCUUAACAATT against Cadps2,inactive: -0.797
6,GGAAUUCCUAAUUACGAAUTT against Ufd1l,inactive: -0.445
7,GGUCCUGAGUGUCAAGUUUTT against E430036I04Rik,inactive: 1.17
8,GGCUGAAGUAAGGUUUCACTT against Ict1,inactive: 0.234
9,GCUAAUGACACCACUUUUGTT against Aldh9a1,inactive: -0.322
10,GGAAACAACAACUGUCACATT against Defb40,inactive: -0.993
11,GGCAGAGCCUGGACAAAUATT against Slc6a4,inactive: -1.41
12,GGGAGUUGACUAGAAGUAATT against Bag1,inactive: -1.81
13,GGCAUGUCUUCACAGGUGATT against Snrk,inactive: -0.253
14,GGAUAAAGAAGGUAUUCUUTT against Mccc1,inactive: 0.803
15,CCUAUCAUGGCAGAAUACUTT against 1300017J02Rik,inactive: 0.116
16,GGACCAGAUAAUAAAGGAATT against 1110032D12Rik,inactive: -0.275
17,GGUGGUGGCUGUGUAUAACTT against Cdh15,inactive: 0.0345
18,GGGCUCAUGAACUAAAAUUTT against 5830404H04Rik,inactive: -0.664
19,GCAAUUGAGUCCAUAUAGCTT against Jtb,inactive: 0.78
20,GGCCUUAAAAUACCUUUGATT against Srpx,inactive: -1.66
21,GGAAGGUUUAUUCUUGGAUTT against Shcbp1,inactive: 0.0859
22,GCUACUGGGAAUCUUUCAATT against 5730596B20Rik,inactive: -0.659
23,GCUUAUGCCAGUCUGUCAUTT against Hs1bp1,inactive: 0.287
24,GGUUAAAGACAUGUACUAGTT against 9930022D16Rik,inactive: -0.0934
25,GCGAAAUUCUGAAAAAGCCTT against 4833417A11Rik,inactive: 0.68
26,GCGAAUCUCCUCCUAGUGATT against E130310N06,inactive: -0.203

row,Sequence,z-score
1,CGUACUCCAACAACACUUUTT against Pdzk8,inactive: 0.238
2,CCUACUUUAUUAUGUGUCATT against Mmp10,inactive: 0.162
3,GGAAACCACUAUCCACCUUTT against Ubd,inactive: 0.123
4,GGGUUUCAUACCCACUGCUTT against Cntnap1,inactive: -1.2
5,GGUGUUUCGCUUGGAGGUGTT against Star,inactive: -0.998
6,GGAGGAGCUGGAGAAAACATT against Psd4,inactive: -2.7
7,CCAGAUAUGAAGCUGCUCCTT against Rab28,inactive: -0.202
8,GCCACUACGCUCUACUGCATT against C230096C10Rik,inactive: 0.367
9,GGUGAUUGUCUGGGAUUCCTT against Gnb5,inactive: 0.666
10,GCAGGGUACUGGCUAAAUATT against Tnfrsf5,inactive: -0.562
11,GGAACAUCCAAAGCUCCACTT against LOC209387,inactive: -0.295
12,GCCUUUAGCAAAGUGGUUCTT against Rragd,inactive: -0.0217
13,GGAACUUGCCAGAGAUACATT against Gak,inactive: 1.05
14,UUCCAUUUUUUGGAGACCATT against AI746432,inactive: -0.59
15,GCAUUGGAUACCCUCAGUATT against Krtap16-1,inactive: -1.86
16,GGACCAAGAACCAGCAAUGTT against Defb6,inactive: 0.932
17,GCCGUCAGAUGACAACUAGTT against Lta,inactive: -0.668
18,GGAGAAGGUCAUUCUGAUGTT against 4932439K10Rik,inactive: 0.852
19,GGCCUACCACCUUCAGAAGTT against Rpl37,inactive: -2.25
20,CGAGGGUGAAAGCUCUUUUTT against Zfp248,inactive: -1.45
21,GGUAUACCACUAUUCUCACTT against Olfr649,inactive: -0.344
22,GGUUAGAAUAUGCAGAACATT against Arntl,inactive: -2.52
23,GGAAUCCUUUAUGGUUUUCTT against Pald,inactive: -0.306
24,GGAUAUCAGGGUUGUUAAGTT against Txnl4b,inactive: 0.66
25,GCUACCUUUCUGAACAUACTT against Lcp2,inactive: -0.261
26,GGACAAAAAUGGCAAUACUTT against 4930430A15Rik,inactive: -0.54

row,Sequence,z-score
1,CCGCGUUCACAUUCUCUAATT against Hfe,inactive: -0.523
2,GCCAACCUAGCAACUCAAGTT against 4933417L02Rik,inactive: -0.11
3,GGGACCAUGAAUAAUGGCCTT against Snai1,inactive: 1.22
4,GCUUCAAGUUCGUACGCCUTT against Eif2b1,inactive: 3.42
5,CCCUAACAGCUGACGAUAATT against Tm7sf3,inactive: -0.0034
6,GGAUCAAGUUGCCUCCGUUTT against Olfr1097,inactive: -1.82
7,GGAUCAUAGUGUCUUUCAGTT against Dnaja4,inactive: -0.232
8,GGGCACACUUCUCUUCAUUTT against Olfr152,inactive: -0.838
9,GGAAAGUGCAUCAUAGACATT against Thrb,inactive: -0.23
10,CGAUCCUUCUGUCCUGGAUTT against Ever2,inactive: -1.45
11,GGUUUUGAAGCUGAAAAUATT against Zfp60,inactive: -0.599
12,CCAGUACAGAUGUGUUAAATT against BC037393,inactive: -0.761
13,GCUAGGUAUACAGCCAAAGTT against 4633402N23Rik,inactive: 0.44
14,GGACUUUGACAGCUUAGGATT against Acate3,inactive: -0.561
15,CCUCUUCUGCGCGGAUUUGTT against Gpr120,inactive: -1.36
16,CCAAGGACAACCCUAUCAGTT against Cdsn,inactive: 0.668
17,GGUGAACAUCUUCCAUUAUTT against Krtap3-2,inactive: -2.12
18,CGUGUAGCAAUGAGAUAUUTT against Trpc5,inactive: -0.313
19,GCCAAGACAUCAGAAGGAUTT against Nrxn1,inactive: -0.685
20,GGGCCUUACUCAAAUCCCUTT against Fbln5,inactive: -0.267
21,CGUUGGUCUUCACUGAUAATT against 6030440P17Rik,inactive: -1.88
22,GCAACAAAUCAGAUUUGACTT against Dhdh,inactive: -0.38
23,GCUAUGAAAAGUGUCUGCCTT against Cul4b,inactive: -0.154
24,UCUAGAAUGAGGGUCUUUUTT against Il19,inactive: 0.327
25,GCAGCUAAUUAAGUCAAGGTT against Barhl1,inactive: 1.19
26,GGACCAUGAGACGAUGGGATT against Dysf,inactive: 1.67
